The record followed here is paper PMC10497826.

Amino acid sequences for entries named in this document (tags omitted).
UniProt P46379: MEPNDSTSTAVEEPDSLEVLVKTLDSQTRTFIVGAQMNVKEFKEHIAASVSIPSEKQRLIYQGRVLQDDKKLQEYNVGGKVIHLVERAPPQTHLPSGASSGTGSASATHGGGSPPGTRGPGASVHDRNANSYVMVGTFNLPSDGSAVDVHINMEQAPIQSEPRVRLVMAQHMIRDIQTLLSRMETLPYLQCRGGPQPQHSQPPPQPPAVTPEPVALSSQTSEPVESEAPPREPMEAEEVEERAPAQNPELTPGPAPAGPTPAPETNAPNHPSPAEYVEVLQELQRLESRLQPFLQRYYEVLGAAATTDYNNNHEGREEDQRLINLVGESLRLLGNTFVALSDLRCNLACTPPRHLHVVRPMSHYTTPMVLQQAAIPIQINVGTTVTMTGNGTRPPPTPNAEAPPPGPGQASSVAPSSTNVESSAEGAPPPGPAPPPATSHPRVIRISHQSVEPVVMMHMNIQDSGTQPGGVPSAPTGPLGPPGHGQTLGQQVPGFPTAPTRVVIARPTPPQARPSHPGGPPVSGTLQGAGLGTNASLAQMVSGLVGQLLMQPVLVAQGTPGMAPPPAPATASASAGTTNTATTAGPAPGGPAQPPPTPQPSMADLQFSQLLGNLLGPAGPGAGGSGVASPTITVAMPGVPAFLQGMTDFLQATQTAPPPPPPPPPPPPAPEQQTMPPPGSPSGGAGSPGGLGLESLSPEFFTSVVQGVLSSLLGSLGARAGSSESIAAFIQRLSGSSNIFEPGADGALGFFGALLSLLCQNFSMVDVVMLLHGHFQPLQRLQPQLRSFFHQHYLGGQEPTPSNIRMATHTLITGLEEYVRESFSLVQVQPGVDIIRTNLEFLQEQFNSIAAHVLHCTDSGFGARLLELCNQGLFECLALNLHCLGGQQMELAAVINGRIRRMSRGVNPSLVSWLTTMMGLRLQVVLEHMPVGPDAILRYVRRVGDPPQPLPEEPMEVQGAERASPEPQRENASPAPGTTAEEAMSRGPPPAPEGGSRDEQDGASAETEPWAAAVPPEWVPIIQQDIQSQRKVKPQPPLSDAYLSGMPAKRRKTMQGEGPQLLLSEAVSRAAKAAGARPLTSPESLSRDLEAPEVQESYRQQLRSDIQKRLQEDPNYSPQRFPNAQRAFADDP
UniProt P10415: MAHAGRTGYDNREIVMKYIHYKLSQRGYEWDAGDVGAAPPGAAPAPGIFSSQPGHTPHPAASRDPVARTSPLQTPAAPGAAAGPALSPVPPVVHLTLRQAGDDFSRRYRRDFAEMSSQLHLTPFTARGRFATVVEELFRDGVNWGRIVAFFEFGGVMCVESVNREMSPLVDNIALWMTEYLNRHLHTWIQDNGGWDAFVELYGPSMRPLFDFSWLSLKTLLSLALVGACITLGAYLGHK

The target of this experiment is Flag-tagged BAG6 (in HEK-293T) (UniProt P46379). Description: affinity purification with mass spectrometry; immunoprecipitation of BAG6 from HEK-293T cells consistently overexpressing Flag-tagged BAG6, mass spectrometry.

No constants are given. Whether binding was seen depends on the method and setting. In cells and extracts the contact can be indirect. Here binding means that the protein was enriched with, or labelled near, the bait; the list need not be complete.

With “BCL2 (B-cell lymphoma 2), endogenous in HEK-293T (from UniProt P10415 1-239)”, the binding result is “binds”.
